From the supplement of paper PMC8256030
“And” between values parts separate entries of the source, which are not always exact repeats. Equal entries are not always repeated. The list shows a part of the results. Repeats in this data set agree poorly, so a single value says little.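 HEK293T cells were given each compound shortly before transfection with a reporter in which red mCherry is followed by the SARS-CoV-2 frameshift element and then GFP in the −1 frame, so GFP appears only after frameshifting.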

What was measured:
[1] = system: SARS-CoV-2 -1 PRF reporter mCherry-FSE-GFP(-1); assay: mCherry (red) intensity as percent of control; higher = higher upstream reporter expression; details: 10 µM; 24 h; HEK293T
[2] = system: SARS-CoV-2 -1 PRF reporter mCherry-FSE-GFP(-1); assay: percent effect, decrease of GFP/mCherry ratio (-1 PRF reporter) relative to controls; higher = stronger frameshift inhibition; details: 10 µM; 24 h; HEK293T

## NC(=O)CN1Cc2ccccc2OC1=O [caroxazone]
[1]
  mCherry: 108%
[2]
  percent effect: -2.5%

## CC[C@@]1(O)C(=O)OCc2c1cc1n(c2=O)Cc2cc3c([N+](=O)[O-])cccc3nc2-1 [rubitecan]
[1]
  mCherry: 173%
[2]
  percent effect: 1.99%

## COc1ccc(OC)c(C(O)CNC(=O)CN)c1 (stereo not drawn) [midodrine]
[1]
  mCherry: 97.1%
[2]
  percent effect: 0.26%

## O=C1OC(CN2CCOCC2)CN1/N=C/c1ccc([N+](=O)[O-])o1 (stereo not drawn) [furaltadone]
[1]
  mCherry: 118%
[2]
  percent effect: -2.11%

## COc1cc([C@@H]2[C@H]3CO[C@@]4(O)C(=O)[C@@H]2C=C([C@H]2Oc5cc(O)cc(O)c5C(=O)[C@@H]2O)[C@@H]34)ccc1O [Silydianin]
[1]
  mCherry: 99.5%
[2]
  percent effect: -1.96%

## Oc1ccc(Nc2ccnc3cc(Cl)ccc23)cc1CN1CCCC1 [amopyroquine]
[1]
  mCherry: 34.4%
[2]
  percent effect: 3.14%

## CC(C)[C@@H](C)/C=C/[C@@H](C)[C@H]1CC[C@H]2/C(=C/C=C3\C[C@@H](O)CC[C@@H]3C)CCC[C@]12C [dihydrotachysterol]
[1]
  mCherry: 86.7%
[2]
  percent effect: -4.54%

## COc1cc(O)c(C(=O)c2ccccc2)cc1S(=O)(=O)O
[1]
  mCherry: 76.6%
[2]
  percent effect: -3.23%

## N[C@@H](CO)C(=O)O [serine]
[1]
  mCherry: 88.7%
[2]
  percent effect: 0.165%

## Nc1nc(=O)n([C@@H]2CS[C@H](CO)O2)cc1F [emtricitabine]
[1]
  mCherry: 89.2%
[2]
  percent effect: 3.92%

## O=C([O-])C(O)C(O)C(O)C(O)C(O)CO.[Na+] (stereo not drawn)
[1]
  mCherry: 97.2%
[2]
  percent effect: -1.77%

## O=C(N[C@H]1CCS[C@H]2CCC[C@@H](C(=O)O)N2C1=O)[C@@H](S)Cc1ccccc1 [omapatrilat]
[1]
  mCherry: 92.3%
[2]
  percent effect: -9.78%

## CCOC(=O)[C@H](CCc1ccccc1)N[C@@H](C)C(=O)N1[C@H](C(=O)O)C[C@H]2CCCC[C@@H]21 [trandolapril]
[1]
  mCherry: 105% and 94.1%
[2]
  percent effect: -0.437% and -5.75%

## C#C[C@]1(OC(C)=O)CC[C@H]2[C@@H]3CCC4=C[C@@H](OC(C)=O)CC[C@@H]4[C@H]3CC[C@@]21C [Etynodiol]
[1]
  mCherry: 111%
[2]
  percent effect: -4.28%

## CN1CCN(C2Cc3ccccc3Sc3ccc(Cl)cc32)CC1 (stereo not drawn) [clorotepine]
[1]
  mCherry: 77.6%
[2]
  percent effect: -4.46%

## CN1c2c(oc(=O)n(-c3ccccn3)c2=O)-c2ccccc2S1(=O)=O [droxicam]
[1]
  mCherry: 87.6%
[2]
  percent effect: 0.776%

## O=C(N/N=C/c1ccc([N+](=O)[O-])o1)c1ccc(O)cc1
[1]
  mCherry: 99.4%
[2]
  percent effect: -2.2%

## Cc1ccccc1-c1cc(N2CCN(C)CC2)ncc1N(C)C(=O)C(C)(C)c1cc(C(F)(F)F)cc(C(F)(F)F)c1 [netupitant]
[1]
  mCherry: 89.8%
[2]
  percent effect: -0.352%

## C=CCN1CCCC1CNC(=O)c1cc2nn[nH]c2cc1OC (stereo not drawn) [alizapride]
[1]
  mCherry: 92.4%
[2]
  percent effect: -1.9%

## Nc1ncnc2c1ncn2[C@@H]1O[C@H](CO)[C@@H](O)[C@H]1O
[1]
  mCherry: 86.5%
[2]
  percent effect: 0.169%

## O=C(O)Cc1cc(I)c(Oc2ccc(O)c(I)c2)c(I)c1 [tiratricol]
[1]
  mCherry: 104%
[2]
  percent effect: 0.111%

## CCC(C)n1ncn(-c2ccc(N3CCN(c4ccc(OCC5COC(Cn6cncn6)(c6ccc(Cl)cc6Cl)O5)cc4)CC3)cc2)c1=O (stereo not drawn) [Itraconazole]
[1]
  mCherry: 71.1%
[2]
  percent effect: -9.34%

## CCc1cc(Cl)c(OC)c(C(=O)NC[C@@H]2CCCN2CC)c1O [eticlopride]
[1]
  mCherry: 78.8%
[2]
  percent effect: -7.92%

## CN1C(=O)OC(C)(C)C1=O [trimethadione]
[1]
  mCherry: 103%
[2]
  percent effect: 0.972%

## C[C@@H](O)[C@H]1C(=O)N2C(C(=O)O)=C(S[C@@H]3CN[C@H](C(=O)N(C)C)C3)[C@H](C)[C@H]12
[1]
  mCherry: 106%
[2]
  percent effect: -4.77%

## CCCc1ncc(C[n+]2ccccc2C)c(N)n1
[1]
  mCherry: 84%
[2]
  percent effect: -0.447%

## CN1C(C(=O)Nc2nccs2)=C(O)c2ccccc2S1(=O)=O [sudoxicam]
[1]
  mCherry: 70%
[2]
  percent effect: -1.26%

## CCN(CC)CCOC(=O)N(c1ccccc1)c1ccccc1 [dicarfen]
[1]
  mCherry: 96.5%
[2]
  percent effect: -0.492%

## COc1ccc2cc3[n+](cc2c1OC)CCc1cc2c(cc1-3)OCO2
[1]
  mCherry: 99%
[2]
  percent effect: 0.803%

## CCc1ccc(CCOc2ccc(CC3SC(=O)NC3=O)cc2)nc1 (stereo not drawn) [pioglitazone]
[1]
  mCherry: 94.7% and 90.1%
[2]
  percent effect: -0.212% and -2.59%

## CN(CCOc1ccc(CC2SC(=O)NC2=O)cc1)c1ccccn1 (stereo not drawn) [rosiglitazone]
[1]
  mCherry: 99.7%
[2]
  percent effect: -3.54%

## Cc1ccc(-c2ncc(Cl)cc2-c2ccc(S(C)(=O)=O)cc2)cn1 [etoricoxib]
[1]
  mCherry: 329%
[2]
  percent effect: -1.8%

## C[C@@H](C(=O)O)c1ccc(-c2ccccc2)c(F)c1 [tarenflurbil]
[1]
  mCherry: 70.3%
[2]
  percent effect: -0.997%

## NCC1CC(=O)N(Cc2ccccc2)C1 (stereo not drawn) [nebracetam]
[1]
  mCherry: 121%
[2]
  percent effect: -5.3%
